{"source": "paper PMC8184850", "about": "“Cryo-EM structure of TFIIH/Rad4–Rad23–Rad33 in damaged DNA opening in nucleotide excision repair” (Nature Communications, 2021)", "tested_on": "coreTFIIH (7 subunits) + Rad4-Rad23", "assay": "EMSA", "details": "AMP-PNP, 2 mM Mg2+, no co-complex, binds either TFIIH or Rad4-Rad23, EMSA: 20 mM HEPES, 100 mM K-acetate, 2 mM Mg-acetate, 5 mM DTT, room temperature 20 min, 250 nM each component, 0.2x TBE agarose gel at 4 C (pH not stated in this buffer), native protein, label: 32P 5' end (T4 PNK) in EMSA", "note": "For at least one entry, the source does not settle the construct or the ends of the probe. No signal at the amounts used counts as a negative."}
{"sequence": "CATCCCACTACCTGTCCATCTTCACTCAACTATCACCC (double strand) [-15/+24 AAF]", "values": [{"measurement": "binding result", "setting": "N-2-acetylaminofluorene adduct on the single G of strand 1 (nt 14), printed strand spans -13 to +24", "value": "no binding"}]}
{"sequence": "CCATCCCACTACCTGTCCATCTTCACTCA (double strand) [-14/+14 AAF]", "values": [{"measurement": "binding result", "setting": "N-2-acetylaminofluorene adduct on the single G of strand 1 (nt 15, position 0)", "value": "no binding"}]}
